The text below walks through data of patent US6548060 (dated 2003).

No constants are given. Whether binding was seen depends on the method and setting. For some assays here: Binding seen in cells or lysates may run through a third protein. Some entries that bind do so weakly or less than the wild type.

In assay [1] the target is ASK1 (apoptosis signal-regulating kinase), full-length (UniProt Q99683). Briefly: co-immunoprecipitation with anti-Daxx antibody from 293 cells (FIG. 4A).
For assay [2] the target is unchanged. Briefly: co-immunoprecipitation with anti-HA antibody from 293 cells (FIG. 3A).
Assay [3] has the same target. Briefly: co-immunoprecipitation with anti-HA antibody from 293 cells, HA-ASK1-F (FIG. 3B).
Assay [4] addresses T1, N-terminal 649 aa of ASK1 (UniProt Q99683).
T1 sequence (looked up): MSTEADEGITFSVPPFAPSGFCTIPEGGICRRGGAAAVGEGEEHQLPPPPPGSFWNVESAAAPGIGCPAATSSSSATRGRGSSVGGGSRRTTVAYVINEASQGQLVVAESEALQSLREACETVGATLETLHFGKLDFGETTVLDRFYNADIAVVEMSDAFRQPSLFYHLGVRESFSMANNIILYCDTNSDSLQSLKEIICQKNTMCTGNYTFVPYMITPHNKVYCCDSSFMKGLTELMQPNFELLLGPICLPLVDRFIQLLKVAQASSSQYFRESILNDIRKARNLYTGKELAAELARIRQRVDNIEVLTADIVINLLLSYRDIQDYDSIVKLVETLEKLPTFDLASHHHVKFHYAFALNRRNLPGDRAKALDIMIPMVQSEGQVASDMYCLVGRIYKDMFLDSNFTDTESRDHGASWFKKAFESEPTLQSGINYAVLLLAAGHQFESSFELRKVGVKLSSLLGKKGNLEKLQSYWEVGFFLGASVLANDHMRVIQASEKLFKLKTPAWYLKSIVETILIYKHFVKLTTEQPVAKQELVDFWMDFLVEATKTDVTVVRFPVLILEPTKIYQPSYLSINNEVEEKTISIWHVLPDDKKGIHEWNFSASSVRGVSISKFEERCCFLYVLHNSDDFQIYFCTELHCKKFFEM
Briefly: co-immunoprecipitation with anti-HA antibody from 293 cells, HA-ASK1-N (FIG. 3B).

Assay [5] deals with ASK1 (apoptosis signal-regulating kinase), full-length (UniProt Q99683). Briefly: summary of the experiments in the legend of FIG. 1.
The target is the same in assay [6]. Briefly: in vitro pull-down, data not shown.
The target is the same in assay [7]. Briefly: yeast two-hybrid, B42-Daxx-C with LexA-ASK1 (FIG. 2A).

On to “human Daxx, full-length (from UniProt Q9UER7 1-740)”, for which the binding result in assay [1] is listed as “binds”.

B1: human glutaminyl-tRNA synthetase, full-length (enzyme, UniProt P47897 1-775, looked up)
chain: MAALDSLSLFTSLGLSEQKARETLKNSALSAQLREAATQAQQTLGSTIDKATGILLYGLASRLRDTRRLSFLVSYIASKKIHTEPQLSAALEYVRSHPLDPIDTVDFERECGVGVIVTPEQIEEAVEAAINRHRPQLLVERYHFNMGLLMGEARAVLKWADGKMIKNEVDMQVLHLLGPKLEADLEKKFKVAKARLEETDRRTAKDVVENGETADQTLSLMEQLRGEALKFHKPGENYKTPGYVVTPHTMNLLKQHLEITGGQVRTRFPPEPNGILHIGHAKAINFNFGYAKANNGICFLRFDDTNPEKEEAKFFTAICDMVAWLGYTPYKVTYASDYFDQLYAWAVELIRRGLAYVCHQRGEELKGHNTLPSPWRDRPMEESLLLFEAMRKGKFSEGEATLRMKLVMEDGKMDPVAYRVKYTPHHRTGDKWCIYPTYDYTHCLCDSIEHITHSLCTKEFQARRSSYFWLCNALDVYCPVQWEYGRLNLHYAVVSKRKILQLVATGAVRDWDDPRLFTLTALRRRGFPPEAINNFCARVGVTVAQTTMEPHLLEACVRDVLNDTAPRAMAVLESLRVIITNFPAAKSLDIQVPNFPADETKGFHQVPFAPIVFIERTDFKEEPEPGFKRLAWGQPVGLRHTGYVIELQHVVKGPSGCVESLEVTCRRADAGEKPKAFIHWVSQPLMCEVRLYERLFQHKNPEDPTEVPGGFLSDLNLASLHVVDAALVDCSVALAKPFDKFQFERLGYFSVDPDSHQGKLVFNRTVTLKEDPGKV
For B1, the binding result in assay [2], in assay [3] and in assay [4] was “binds” each time.

B2: C-terminal 539 aa catalytic domain of human glutaminyl-tRNA synthetase (enzyme, UniProt P47897 237-775, looked up)
chain: NYKTPGYVVTPHTMNLLKQHLEITGGQVRTRFPPEPNGILHIGHAKAINFNFGYAKANNGICFLRFDDTNPEKEEAKFFTAICDMVAWLGYTPYKVTYASDYFDQLYAWAVELIRRGLAYVCHQRGEELKGHNTLPSPWRDRPMEESLLLFEAMRKGKFSEGEATLRMKLVMEDGKMDPVAYRVKYTPHHRTGDKWCIYPTYDYTHCLCDSIEHITHSLCTKEFQARRSSYFWLCNALDVYCPVQWEYGRLNLHYAVVSKRKILQLVATGAVRDWDDPRLFTLTALRRRGFPPEAINNFCARVGVTVAQTTMEPHLLEACVRDVLNDTAPRAMAVLESLRVIITNFPAAKSLDIQVPNFPADETKGFHQVPFAPIVFIERTDFKEEPEPGFKRLAWGQPVGLRHTGYVIELQHVVKGPSGCVESLEVTCRRADAGEKPKAFIHWVSQPLMCEVRLYERLFQHKNPEDPTEVPGGFLSDLNLASLHVVDAALVDCSVALAKPFDKFQFERLGYFSVDPDSHQGKLVFNRTVTLKEDPGKV
In the case of B2, the binding entry in assay [5], in assay [2] and in assay [6] was “binds” in each case.

B3: C-terminal 137 aa peptide of human Daxx (G604-D740) (other, UniProt Q9UER7 604-740, looked up)
chain: GAGMVSSTSFNGGVSPHNWGDSGPPCKKSRKEKKQTGSGPLGNSYVERQRSVHEKNGKKICTLPSPPSPLASLAPVADSSTRVDSPSHGLVTSSLCIPSPARLSQTPHSQPPRPGTCKTSVATQCDPEEIIVLSDSD
notes: range 604-740; B42 fusion in yeast two-hybrid; His fusion (pET28a), purified, in the in vitro pull-down; also called Daxx-C; B42-Daxx-C
With B3, the binding entry in assay [7] is listed as “binds”.
